No constants are given. Whether binding was seen depends on the method and setting. Some results given as binding are weak or reduced against the parent protein; the word gives no strength.
Biological target: T1, integrin αL chain (UniProt P20701)
T1 sequence: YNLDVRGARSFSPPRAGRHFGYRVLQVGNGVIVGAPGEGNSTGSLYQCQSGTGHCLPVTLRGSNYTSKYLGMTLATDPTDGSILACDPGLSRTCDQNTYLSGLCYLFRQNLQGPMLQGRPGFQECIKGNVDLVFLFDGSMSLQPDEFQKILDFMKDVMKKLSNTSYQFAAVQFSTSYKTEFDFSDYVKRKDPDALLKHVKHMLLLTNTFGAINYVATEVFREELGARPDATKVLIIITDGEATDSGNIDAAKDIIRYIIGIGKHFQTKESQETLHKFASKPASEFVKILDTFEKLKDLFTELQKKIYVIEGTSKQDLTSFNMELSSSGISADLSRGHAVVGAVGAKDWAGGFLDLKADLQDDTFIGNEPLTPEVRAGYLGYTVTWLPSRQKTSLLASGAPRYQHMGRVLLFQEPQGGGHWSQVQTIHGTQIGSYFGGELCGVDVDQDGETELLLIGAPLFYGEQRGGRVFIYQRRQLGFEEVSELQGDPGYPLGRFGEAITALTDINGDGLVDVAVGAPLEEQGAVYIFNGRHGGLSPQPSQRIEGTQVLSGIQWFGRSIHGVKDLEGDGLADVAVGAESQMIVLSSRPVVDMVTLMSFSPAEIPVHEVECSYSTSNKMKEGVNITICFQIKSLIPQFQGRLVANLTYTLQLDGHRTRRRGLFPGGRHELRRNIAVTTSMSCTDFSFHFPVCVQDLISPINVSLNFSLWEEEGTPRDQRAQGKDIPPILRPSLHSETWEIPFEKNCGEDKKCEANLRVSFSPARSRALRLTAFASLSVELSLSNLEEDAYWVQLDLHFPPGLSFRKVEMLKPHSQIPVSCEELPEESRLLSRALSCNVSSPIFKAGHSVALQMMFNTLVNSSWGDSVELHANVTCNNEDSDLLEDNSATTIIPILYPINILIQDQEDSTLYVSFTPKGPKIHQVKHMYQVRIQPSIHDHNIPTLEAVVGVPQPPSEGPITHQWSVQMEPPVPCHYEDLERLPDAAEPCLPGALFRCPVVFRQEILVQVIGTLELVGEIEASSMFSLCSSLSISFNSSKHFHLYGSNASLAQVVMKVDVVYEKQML
Assay: SPR; Biacore 3000, 25°C; integrin αL amine-coupled to CM5 (~500 RU), soluble VWF or VWF-A2 flowed over at 30 μL/min in TBSTG (25 mM Tris pH 7.5, 150 mM NaCl, 0.05% Tween, 2% glycerol); apparent; both purified

By UniProt entry, the sequences of proteins in these tests, tags left out. Residues count along the entry.
UniProt P04275, residues 764-2813: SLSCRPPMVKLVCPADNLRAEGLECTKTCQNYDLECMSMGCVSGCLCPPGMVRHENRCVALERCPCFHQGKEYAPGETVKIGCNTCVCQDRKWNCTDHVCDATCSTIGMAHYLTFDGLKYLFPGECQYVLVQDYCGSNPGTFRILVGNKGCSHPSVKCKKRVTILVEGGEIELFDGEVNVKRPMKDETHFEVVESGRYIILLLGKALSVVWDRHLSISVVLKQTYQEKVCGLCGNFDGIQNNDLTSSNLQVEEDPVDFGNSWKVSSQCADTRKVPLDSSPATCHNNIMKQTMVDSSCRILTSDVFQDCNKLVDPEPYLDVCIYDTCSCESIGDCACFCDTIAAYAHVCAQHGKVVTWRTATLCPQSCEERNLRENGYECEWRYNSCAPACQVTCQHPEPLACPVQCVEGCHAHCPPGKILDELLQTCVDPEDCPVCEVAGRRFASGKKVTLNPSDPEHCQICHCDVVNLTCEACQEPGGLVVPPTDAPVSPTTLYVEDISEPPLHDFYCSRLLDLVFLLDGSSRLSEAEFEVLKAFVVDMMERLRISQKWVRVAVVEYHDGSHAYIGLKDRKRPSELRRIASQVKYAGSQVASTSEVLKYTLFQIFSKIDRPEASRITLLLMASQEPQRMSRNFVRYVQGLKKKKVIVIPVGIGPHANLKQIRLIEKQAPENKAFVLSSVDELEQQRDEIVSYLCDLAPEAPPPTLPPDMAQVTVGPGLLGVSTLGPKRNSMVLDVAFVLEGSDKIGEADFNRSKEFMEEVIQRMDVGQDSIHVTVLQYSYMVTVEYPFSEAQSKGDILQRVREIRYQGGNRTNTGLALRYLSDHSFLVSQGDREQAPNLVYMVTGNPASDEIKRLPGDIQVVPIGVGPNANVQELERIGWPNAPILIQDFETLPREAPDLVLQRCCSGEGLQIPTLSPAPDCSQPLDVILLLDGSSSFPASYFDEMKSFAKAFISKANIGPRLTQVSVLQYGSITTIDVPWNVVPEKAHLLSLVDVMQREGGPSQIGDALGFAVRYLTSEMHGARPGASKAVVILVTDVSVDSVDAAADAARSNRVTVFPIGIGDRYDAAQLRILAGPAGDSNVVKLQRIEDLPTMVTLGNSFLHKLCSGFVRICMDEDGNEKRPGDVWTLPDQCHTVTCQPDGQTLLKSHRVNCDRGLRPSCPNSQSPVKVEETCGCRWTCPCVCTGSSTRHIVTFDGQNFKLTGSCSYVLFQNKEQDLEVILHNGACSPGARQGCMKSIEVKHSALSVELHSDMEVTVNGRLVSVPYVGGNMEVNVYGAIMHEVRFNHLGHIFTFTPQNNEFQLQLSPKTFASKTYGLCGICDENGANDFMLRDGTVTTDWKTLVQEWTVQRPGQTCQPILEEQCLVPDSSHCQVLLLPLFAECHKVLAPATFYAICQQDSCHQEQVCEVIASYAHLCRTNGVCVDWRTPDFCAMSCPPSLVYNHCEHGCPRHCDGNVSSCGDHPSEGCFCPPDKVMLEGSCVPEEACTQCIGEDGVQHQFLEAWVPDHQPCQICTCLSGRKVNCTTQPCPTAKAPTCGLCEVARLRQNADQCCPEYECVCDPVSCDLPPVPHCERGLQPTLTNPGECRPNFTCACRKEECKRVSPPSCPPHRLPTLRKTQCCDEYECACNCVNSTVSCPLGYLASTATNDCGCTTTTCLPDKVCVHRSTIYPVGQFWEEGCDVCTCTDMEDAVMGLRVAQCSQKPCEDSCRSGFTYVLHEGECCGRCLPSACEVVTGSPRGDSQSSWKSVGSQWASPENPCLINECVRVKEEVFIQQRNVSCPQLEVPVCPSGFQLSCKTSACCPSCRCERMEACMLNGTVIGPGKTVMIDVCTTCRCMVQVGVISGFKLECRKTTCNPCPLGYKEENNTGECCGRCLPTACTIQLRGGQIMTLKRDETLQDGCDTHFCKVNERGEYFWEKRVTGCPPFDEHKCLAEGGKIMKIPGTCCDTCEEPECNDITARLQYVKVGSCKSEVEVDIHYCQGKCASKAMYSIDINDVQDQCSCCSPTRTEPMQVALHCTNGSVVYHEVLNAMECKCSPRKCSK

binding: binds
Substance: factor VIII‐free Von Willebrand factor (from UniProt P04275 764-2813)

From publication PMC11222974
